Experimental data as given in paper PMC5989213.
Read-outs that look alike come from different tables or passages of the source. No constants are given. Whether binding was seen depends on the method and setting. Binding seen in cells or lysates may run through a third protein. Some binding calls cover weakened binding; strength is not graded here. Each block holds one molecule with its values, some of them ahead of it.

Amino acid sequences for entries named in this document (tags omitted). A change or cut given only in a name is not applied to a line headed by its entry. Chains listed by the source or under a name are the forms on record and can include a tag or linker.
UniProt Q9Y6X0: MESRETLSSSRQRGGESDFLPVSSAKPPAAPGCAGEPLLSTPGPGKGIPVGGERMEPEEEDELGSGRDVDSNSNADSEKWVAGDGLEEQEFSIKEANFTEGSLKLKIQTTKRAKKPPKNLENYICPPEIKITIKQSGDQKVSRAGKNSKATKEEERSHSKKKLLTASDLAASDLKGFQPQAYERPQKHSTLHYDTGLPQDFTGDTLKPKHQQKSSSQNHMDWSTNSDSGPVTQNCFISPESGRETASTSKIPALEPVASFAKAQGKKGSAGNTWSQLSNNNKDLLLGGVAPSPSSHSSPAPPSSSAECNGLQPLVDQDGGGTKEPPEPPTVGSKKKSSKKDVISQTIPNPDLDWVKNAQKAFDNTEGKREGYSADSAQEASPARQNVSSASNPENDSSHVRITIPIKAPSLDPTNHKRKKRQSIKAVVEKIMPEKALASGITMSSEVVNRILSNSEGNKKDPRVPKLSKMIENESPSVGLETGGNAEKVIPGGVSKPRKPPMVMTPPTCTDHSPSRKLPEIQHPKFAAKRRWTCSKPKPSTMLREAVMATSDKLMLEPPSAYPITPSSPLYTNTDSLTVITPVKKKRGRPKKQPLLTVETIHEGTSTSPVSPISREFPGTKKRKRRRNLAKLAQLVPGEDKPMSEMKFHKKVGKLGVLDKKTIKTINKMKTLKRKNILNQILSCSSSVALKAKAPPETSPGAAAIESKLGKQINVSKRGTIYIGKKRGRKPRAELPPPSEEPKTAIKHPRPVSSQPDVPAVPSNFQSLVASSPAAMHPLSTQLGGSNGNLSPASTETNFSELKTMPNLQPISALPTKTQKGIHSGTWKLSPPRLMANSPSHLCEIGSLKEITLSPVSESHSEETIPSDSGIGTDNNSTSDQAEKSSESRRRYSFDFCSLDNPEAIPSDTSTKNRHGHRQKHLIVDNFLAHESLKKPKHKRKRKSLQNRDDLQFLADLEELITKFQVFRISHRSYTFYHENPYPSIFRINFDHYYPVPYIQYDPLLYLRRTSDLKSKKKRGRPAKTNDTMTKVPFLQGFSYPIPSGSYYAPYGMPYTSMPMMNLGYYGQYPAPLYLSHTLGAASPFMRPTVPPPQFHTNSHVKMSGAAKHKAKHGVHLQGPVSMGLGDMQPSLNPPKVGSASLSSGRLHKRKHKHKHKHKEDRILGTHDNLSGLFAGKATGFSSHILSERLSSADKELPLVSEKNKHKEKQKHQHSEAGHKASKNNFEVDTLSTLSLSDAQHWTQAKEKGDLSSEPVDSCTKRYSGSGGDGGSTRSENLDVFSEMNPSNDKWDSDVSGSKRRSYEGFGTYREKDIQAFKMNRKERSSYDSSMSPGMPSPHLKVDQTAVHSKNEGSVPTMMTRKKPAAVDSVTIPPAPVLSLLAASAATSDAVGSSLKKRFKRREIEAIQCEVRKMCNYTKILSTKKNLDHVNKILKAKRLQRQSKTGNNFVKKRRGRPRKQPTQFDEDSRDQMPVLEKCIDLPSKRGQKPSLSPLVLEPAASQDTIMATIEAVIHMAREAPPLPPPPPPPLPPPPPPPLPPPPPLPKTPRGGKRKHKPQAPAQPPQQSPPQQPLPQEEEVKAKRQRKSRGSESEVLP
GFP-fused SETBP1-G870S-ΔHBM (Q9Y6X0, form named): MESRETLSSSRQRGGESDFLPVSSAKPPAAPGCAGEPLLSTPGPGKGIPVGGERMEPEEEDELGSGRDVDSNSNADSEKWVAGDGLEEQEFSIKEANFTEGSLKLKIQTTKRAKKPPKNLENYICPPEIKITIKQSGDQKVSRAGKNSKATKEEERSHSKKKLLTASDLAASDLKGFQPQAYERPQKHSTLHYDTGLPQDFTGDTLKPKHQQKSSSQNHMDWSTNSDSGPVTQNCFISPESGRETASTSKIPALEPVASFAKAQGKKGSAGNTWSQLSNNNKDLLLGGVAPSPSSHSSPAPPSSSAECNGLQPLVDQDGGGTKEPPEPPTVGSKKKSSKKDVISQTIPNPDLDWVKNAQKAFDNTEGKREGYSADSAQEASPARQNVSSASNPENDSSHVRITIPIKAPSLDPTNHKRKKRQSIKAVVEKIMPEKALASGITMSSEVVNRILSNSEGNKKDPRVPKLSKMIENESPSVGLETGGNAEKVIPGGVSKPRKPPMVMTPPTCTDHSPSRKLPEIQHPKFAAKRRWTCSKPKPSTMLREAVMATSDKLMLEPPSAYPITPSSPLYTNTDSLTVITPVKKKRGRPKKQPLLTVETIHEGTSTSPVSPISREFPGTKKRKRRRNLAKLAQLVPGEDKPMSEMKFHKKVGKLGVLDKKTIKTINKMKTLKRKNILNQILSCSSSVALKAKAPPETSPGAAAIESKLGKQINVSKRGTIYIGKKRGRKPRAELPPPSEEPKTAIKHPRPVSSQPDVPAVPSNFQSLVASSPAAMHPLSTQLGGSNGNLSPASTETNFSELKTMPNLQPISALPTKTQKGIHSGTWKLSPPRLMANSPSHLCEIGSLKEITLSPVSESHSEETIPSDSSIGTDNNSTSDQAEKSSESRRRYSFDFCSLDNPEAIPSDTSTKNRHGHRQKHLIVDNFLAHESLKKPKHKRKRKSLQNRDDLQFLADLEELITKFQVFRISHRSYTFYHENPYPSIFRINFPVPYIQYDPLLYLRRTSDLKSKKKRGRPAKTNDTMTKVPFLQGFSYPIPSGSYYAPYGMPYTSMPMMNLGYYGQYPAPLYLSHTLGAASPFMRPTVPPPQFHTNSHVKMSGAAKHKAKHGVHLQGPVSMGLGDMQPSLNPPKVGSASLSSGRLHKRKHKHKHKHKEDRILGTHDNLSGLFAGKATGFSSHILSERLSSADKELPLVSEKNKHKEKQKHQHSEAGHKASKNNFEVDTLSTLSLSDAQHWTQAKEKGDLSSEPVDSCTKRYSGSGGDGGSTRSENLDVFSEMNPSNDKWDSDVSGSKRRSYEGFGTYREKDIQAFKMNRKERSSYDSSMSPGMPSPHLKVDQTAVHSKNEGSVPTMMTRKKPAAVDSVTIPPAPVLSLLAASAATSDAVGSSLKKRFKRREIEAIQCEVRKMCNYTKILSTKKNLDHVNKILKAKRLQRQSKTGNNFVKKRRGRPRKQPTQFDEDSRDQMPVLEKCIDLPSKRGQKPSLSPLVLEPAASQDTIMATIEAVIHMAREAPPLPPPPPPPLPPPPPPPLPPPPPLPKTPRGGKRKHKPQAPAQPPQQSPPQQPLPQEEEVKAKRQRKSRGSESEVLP
GFP-fused SETBP1ΔHBM (Q9Y6X0, form named): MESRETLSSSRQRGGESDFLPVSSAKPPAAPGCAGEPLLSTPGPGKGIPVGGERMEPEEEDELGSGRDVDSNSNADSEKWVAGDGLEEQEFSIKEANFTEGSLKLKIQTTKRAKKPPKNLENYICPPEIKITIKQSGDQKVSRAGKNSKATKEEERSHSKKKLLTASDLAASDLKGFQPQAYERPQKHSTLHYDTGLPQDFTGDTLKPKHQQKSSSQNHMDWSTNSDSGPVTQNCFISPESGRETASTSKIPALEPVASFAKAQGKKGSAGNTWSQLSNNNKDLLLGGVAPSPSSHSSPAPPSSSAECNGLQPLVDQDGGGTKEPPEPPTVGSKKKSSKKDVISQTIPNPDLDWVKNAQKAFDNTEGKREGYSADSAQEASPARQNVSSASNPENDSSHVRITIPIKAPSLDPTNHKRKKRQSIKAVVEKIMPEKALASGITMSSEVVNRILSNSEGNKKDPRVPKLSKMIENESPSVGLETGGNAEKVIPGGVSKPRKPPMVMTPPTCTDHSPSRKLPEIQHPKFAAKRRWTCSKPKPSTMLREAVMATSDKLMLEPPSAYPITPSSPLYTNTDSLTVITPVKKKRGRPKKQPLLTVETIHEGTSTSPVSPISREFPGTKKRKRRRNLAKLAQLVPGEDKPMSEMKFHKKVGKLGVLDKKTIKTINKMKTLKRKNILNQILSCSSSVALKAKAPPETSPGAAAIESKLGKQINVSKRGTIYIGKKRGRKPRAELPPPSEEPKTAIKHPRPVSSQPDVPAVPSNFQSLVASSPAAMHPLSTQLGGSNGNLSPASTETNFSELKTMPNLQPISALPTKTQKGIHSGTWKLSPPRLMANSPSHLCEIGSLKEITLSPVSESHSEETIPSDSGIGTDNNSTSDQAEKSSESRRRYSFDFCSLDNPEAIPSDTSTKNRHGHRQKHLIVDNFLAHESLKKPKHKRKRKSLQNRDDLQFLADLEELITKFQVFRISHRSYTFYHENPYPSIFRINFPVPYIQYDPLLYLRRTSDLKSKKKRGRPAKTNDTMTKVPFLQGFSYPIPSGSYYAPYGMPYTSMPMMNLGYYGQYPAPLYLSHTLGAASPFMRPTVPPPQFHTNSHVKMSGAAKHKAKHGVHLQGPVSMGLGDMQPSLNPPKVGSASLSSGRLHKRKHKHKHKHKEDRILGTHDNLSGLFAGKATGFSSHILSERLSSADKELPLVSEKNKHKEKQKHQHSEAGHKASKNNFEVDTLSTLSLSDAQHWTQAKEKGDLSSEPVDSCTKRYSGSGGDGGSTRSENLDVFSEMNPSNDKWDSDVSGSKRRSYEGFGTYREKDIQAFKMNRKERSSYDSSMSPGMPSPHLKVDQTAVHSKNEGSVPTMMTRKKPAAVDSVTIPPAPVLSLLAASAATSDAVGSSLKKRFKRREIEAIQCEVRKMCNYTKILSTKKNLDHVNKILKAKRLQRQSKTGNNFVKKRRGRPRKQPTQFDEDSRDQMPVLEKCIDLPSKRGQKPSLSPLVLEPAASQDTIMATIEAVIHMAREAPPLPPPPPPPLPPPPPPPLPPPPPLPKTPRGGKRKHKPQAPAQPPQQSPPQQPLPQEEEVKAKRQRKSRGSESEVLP
UniProt Q9Y297: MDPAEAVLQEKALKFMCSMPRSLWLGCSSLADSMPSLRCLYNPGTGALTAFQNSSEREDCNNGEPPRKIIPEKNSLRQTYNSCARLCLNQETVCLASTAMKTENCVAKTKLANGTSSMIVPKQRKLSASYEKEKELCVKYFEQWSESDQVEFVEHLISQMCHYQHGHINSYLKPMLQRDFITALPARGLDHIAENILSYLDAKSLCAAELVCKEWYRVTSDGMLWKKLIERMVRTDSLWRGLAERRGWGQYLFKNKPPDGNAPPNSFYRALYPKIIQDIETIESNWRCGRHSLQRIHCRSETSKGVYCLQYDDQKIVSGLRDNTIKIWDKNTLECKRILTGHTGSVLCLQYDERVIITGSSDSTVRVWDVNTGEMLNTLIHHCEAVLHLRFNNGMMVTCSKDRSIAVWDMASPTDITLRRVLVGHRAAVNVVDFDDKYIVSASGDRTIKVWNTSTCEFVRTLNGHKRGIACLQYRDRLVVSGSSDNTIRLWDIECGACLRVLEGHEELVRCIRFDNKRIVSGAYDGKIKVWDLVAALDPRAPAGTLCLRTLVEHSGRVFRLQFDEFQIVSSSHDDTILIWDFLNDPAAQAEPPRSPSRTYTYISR

Legend:
[1] = biological target: V5-SETBP1 G870S (human) (UniProt Q9Y6X0); assay: co-IP; V5-agarose beads (or anti-HCF1) on the sonicated nuclear fraction of transiently transfected HEK 293T cells, overnight at 4 °C; elution with Laemmli buffer, western blot
[2] = biological target: V5-SETBP1-WT (human) (UniProt Q9Y6X0); assay: as above
[3] = biological target: GFP-fused SETBP1 G870S (human) (UniProt Q9Y6X0); assay: FRET or BRET; acceptor photobleaching FRET in fixed HEK 293 cells 48 h after transfection; GFP on SETBP1 as donor, Alexa Fluor 555-conjugated secondary antibodies on the partner as acceptor; nuclear regions of interest
[4] = biological target: GFP-fused SETBP1 WT (human) (UniProt Q9Y6X0); assay: as above
[5] = biological target: GFP-fused SETBP1-G870S-ΔHBM (human) (UniProt Q9Y6X0); assay: as above
[6] = biological target: GFP-fused SETBP1ΔHBM (human) (UniProt Q9Y6X0); assay: as above
[7] = biological target: V5-SETBP1 G870S (human) (UniProt Q9Y6X0); assay: co-IP; V5-agarose beads (or anti-HCF1) on the sonicated nuclear fraction of transiently transfected HEK 293T cells, overnight at 4 °C; elution with Laemmli buffer, western blot; remark: listed apart in the source
[8] = biological target: V5-SETBP1-WT (human) (UniProt Q9Y6X0); assay: as above; remark: listed apart in the source

binding [1]: binds
binding [2]: binds
Molecule: KMT2A (from UniProt Q03164 1-3969)

binding [3]: no binding
binding [4]: binds
binding [5]: no binding
binding [6]: binds
Molecule: Flag-tagged β-TrCP (from UniProt Q9Y297 1-605)

binding [7]: binds
binding [8]: binds
B1: PHF6 (protein, UniProt Q8IWS0 1-365)
chain: MSSSVEQKKGPTRQRKCGFCKSNRDKECGQLLISENQKVAAHHKCMLFSSALVSSHSDNESLGGFSIEDVQKEIKRGTKLMCSLCHCPGATIGCDVKTCHRTYHYHCALHDKAQIREKPSQGIYMVYCRKHKKTAHNSEADLEESFNEHELEPSSPKSKKKSRKGRPRKTNFKGLSEDTRSTSSHGTDEMESSSYRDRSPHRSSPSDTRPKCGFCHVGEEENEARGKLHIFNAKKAAAHYKCMLFSSGTVQLTTTSRAEFGDFDIKTVLQEIKRGKRMKCTLCSQPGATIGCEIKACVKTYHYHCGVQDKAKYIENMSRGIYKLYCKNHSGNDERDEEDEERESKSRGKVEIDQQQLTQQQLNGN
